Non-standard residues stand in square brackets, D forms with d. *: point of attachment. Tos = Cc1ccc(S(=O)(=O)*)cc1; ClZ = O=C(OCc1ccccc1Cl)*; Nle = CCCC[C@H](N)C(=O)O; Boc = CC(C)(C)OC(=O)*; OBn = c1ccc(CO*)cc1; Bn = c1ccc(C*)cc1

The values below come from patent US4656250A (Toyo Jozo Kabushiki Kaisha, priority 1983, dated 1987).

A short description of the first data set: general procedure: solution-phase peptide synthesis; WSC/HOBt. The note with it: coupling step.
With Boc-HNLG-OBn, the step yield was determined as 74.8%.

“Boc-Trp-Leu-Arg(Tos)-Lys(Z-CI)-Lys(Z-Cl)-Leu-Gln-Asp(OBzl)-Val-His-Asn-Tyr (Bzl-Cl2)-NH2” yielded a step yield of 99.1%.

Regarding Boc-His(Tos)-Leu-Asn-Ser(Bzl)-OPAC, the step yield is on record as 85.1%.

Turning to “Boc-Ser(Bzl)-Val-Ser(Bzl)-Glu(OBzl)-Ile-Gln-Leu-OPAC”, the step yield is listed as 92.3%.

Regarding “Boc-Gln-Asp(OBzl)-Val-His-Asn-Tyr(Bzl-Cl2)-NH2”, the step yield is listed as 94.5%.

In turn, Boc-Lys(Z-Cl)-His-Leu-Asn-Ser(Bzl)-OPAC came in with a step yield of 9.18%.

As for “Boc-Glu(OBzl)-Arg(Tos)-Val-Glu(OBzl)-OPAC”, the step yield came out at 76.7%.

The substance Boc-LR(Tos)K(ClZ)K(ClZ)L-OEt came in with a step yield of 90.5%.

The substance Boc-Val-His-Asn-Tyr(Bzl-Cl2)-NH2 yielded a step yield of 103.2%.

Boc-WLR(Tos)K(ClZ)K(ClZ)L-OEt yielded a step yield of 81.2%.

The substance “Boc-Asp(OBzl)-Val-His-Asn-Tyr(Bzl-Cl2)-NH2” returned a step yield of 89.8%.

“Boc-Val-Ser(Bzl)-Glu(OBzl)-Ile-Gln-Leu-OPAC”: the step yield is listed as 96.8%.

Substance Boc-Ser(Bzl)-Glu(OBzl)-Ile-Gln-Leu-OPAC came in with a step yield of 94.7%.

Substance Boc-[Nle]HNLG-OBn came in with a step yield of 42.9%.

The substance Boc-Glu(OBzl)-Ile-Gln-Leu-OPAC gave a step yield of 97.1%.

In turn, “Boc-Nle-Glu(OBzl)-Arg(Tos)-Val-Glu(OBzl)-OPAC” had a step yield of 78%.

The data set is the same for the next values; noted with them: late stage modification step.
Boc-WLR(Tos)K(ClZ)K(ClZ)L-OH: the step yield was determined as 101.1%.

On to Boc-Lys(Z-CL)-His-Leu-Asn-Ser(Bzl)-OH, for which the step yield turned out to be 95.2%.

The substance Boc-S(Bn)VS(Bn)E(OBn)IQL-OH displayed a step yield of 97.4%.

Boc-[Nle]HNLG-OH: the step yield is listed as 71.1%.
